# Record: PubChem BioAssay AID504786 (Drosophila RNAi Screening Center, 2011)
# Assay: 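Positive regulators of HIF-driven reporter output in Drosophila cells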 (primary screen)
# Cells: Drosophila S2 cells with a stable HIF luciferase reporter
# Reagent: long dsRNA against Drosophila genes, about 0.2 µg dsRNA per well of a 384-well plate
# Timing: three days of knock-down, then 20 h of DFO before reading
# Treatment: desferrioxamine (DFO) at 100 µM, an iron chelator that mimics hypoxia, for 20 h
# Detection: 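Firefly luciferase driven by the mouse ldh-a hypoxia-response element, measured after 20 h of 100 µM DFO; z-scores per plate, higher means more signal lost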
# Scale: z-score: higher = stronger loss of HIF reporter signal
# In all, the deposit lists about 21,000 reagents; shown is a random part of those that have a named target and a result. 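Primary screen; positive scores mean lost reporter signal, so the sign may be inverted from the usual convention.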 The numbers tell different reagents against one gene apart. Names joined by + are all predicted targets of the reagent.
target,reagent no.,"z-score, replicate 1","z-score, replicate 2","z-score, replicate 3","z-score, replicate 4"
CG15537 (GeneID 43614),1,-0.5,0.2,,
Mlc2 (GeneID 43587),1,-0.3,0,,
AP-2alpha (GeneID 33211),1,-0.6,-0.8,,
AdoR (GeneID 43583),1,4.3,2.2,,
MTPAP (GeneID 31081),1,-0.3,0.5,,
CG32726 (GeneID 318175),1,-0.3,-0.3,,
Mnr (GeneID 33098),1,-0.3,-0.2,,
Mnr (GeneID 33098),2,-0.1,-1.2,-0.6,-0.4
beta-Man (GeneID 40524),1,-0.3,-0.4,,
beta-Man (GeneID 40524),2,-0.3,-0.4,,
mud (GeneID 44839),1,-0.2,-0.5,-0.4,-0.2
CG33490 (GeneID 2768970),1,-0.3,-0.1,,
PpD5 (GeneID 44148),1,0,-0.1,,
CG5727 (GeneID 34356),1,-0.2,-0.5,,
p130CAS (GeneID 38021),1,-0.2,-0.4,,
p130CAS (GeneID 38021),2,4.9,5.5,,
yellow-f (GeneID 41595),1,0,-0.1,,
ERp44 (GeneID 32588),1,-0.1,0.1,,
CG5382 (GeneID 42618),1,-0.2,0.1,,
Lsp1beta (GeneID 33274),1,-0.3,-0.4,,
Trmt112 (GeneID 40343),1,-0.1,-0.3,,
NdufA3 (GeneID 50405),1,0.4,0.6,,
CG34430 (GeneID 5740489),1,-0.3,-0.6,,
CG42531 (GeneID 8673972),1,-0.3,0.2,,
Surf4 (GeneID 41864),1,-0.1,-0.1,,
CG1979 (GeneID 40837),1,-0.4,-0.3,,
bnl (GeneID 42356),1,-0.3,-0.1,,
bnl (GeneID 42356),2,1,0.9,,
CG5084 (GeneID 37051),1,0,-0.6,,
Or13a (GeneID 32562),1,-0.1,-0.2,,
CG4318 (GeneID 32266),1,-0.3,-1,,
eIF3l (GeneID 39386),1,-0.5,-1,,
nmdyn-D6 (GeneID 32396),1,-0.2,-1,,
laf (GeneID 40606),1,-0.2,0.1,,
CNMaR (GeneID 39127),1,0.3,0.7,,
CNMaR (GeneID 39127),2,-0.3,-0.5,,
CG31191 (GeneID 42477),1,-0.4,-0.2,,
CG31191 (GeneID 42477),2,0.4,-0.4,,
CG31191 (GeneID 42477),3,1.1,-0.2,,
Hdc (GeneID 36076),1,-0.4,-0.6,,
CG13712 (GeneID 38574),1,-0.5,-0.4,,
CG3349 (GeneID 39623),1,-0.2,2.2,,
His3:CG33818 + His3:CG33857 + His3:CG33806 + 20 more,1,,2.3,,
tous (GeneID 37582),1,-0.3,-0.1,,
CG2811 (GeneID 37988),1,0.1,0.1,,
CG31913 (GeneID 319023),1,-0.2,0,,
pnt (GeneID 42757),1,-0.1,-0.7,,
kin17 (GeneID 40242),1,-0.2,0.2,,
GNBP1 (GeneID 40034),1,-0.3,-0.7,,
CycT (GeneID 39961),1,2.9,4.2,,
y (GeneID 30980),1,-0.3,0.1,,

Continued, starting with the last 11 of the part before.
target,reagent no.,"z-score, replicate 1","z-score, replicate 2","z-score, replicate 3","z-score, replicate 4"
CG13712 (GeneID 38574),1,-0.5,-0.4,,
CG3349 (GeneID 39623),1,-0.2,2.2,,
His3:CG33818 + His3:CG33857 + His3:CG33806 + 20 more,1,,2.3,,
tous (GeneID 37582),1,-0.3,-0.1,,
CG2811 (GeneID 37988),1,0.1,0.1,,
CG31913 (GeneID 319023),1,-0.2,0,,
pnt (GeneID 42757),1,-0.1,-0.7,,
kin17 (GeneID 40242),1,-0.2,0.2,,
GNBP1 (GeneID 40034),1,-0.3,-0.7,,
CycT (GeneID 39961),1,2.9,4.2,,
y (GeneID 30980),1,-0.3,0.1,,
CG46385 (GeneID 246653),1,1,2.7,,
CG46385 (GeneID 246653),2,-0.3,-0.3,,
hbs (GeneID 44129),1,-0.3,-0.5,,
Wnt6 (GeneID 34010),1,-0.3,-0.5,,
eEF2 (GeneID 35422),1,6.5,5.2,,
Taf7 (GeneID 40934),1,0.9,0.4,,
shps (GeneID 42892),1,0,-0.1,,
PolQ (GeneID 41571),1,-0.3,0.2,,
SPE (GeneID 42791),1,-0.2,-0.7,,
CG14125 (GeneID 39359),1,-0.2,0,,
Chchd3 (GeneID 43672),1,3.6,1.3,,
H2.0 (GeneID 33841),1,-0.5,-0.3,-0.1,-0.3
bw (GeneID 37724),1,-0.1,-0.2,,
bw (GeneID 37724),2,-0.2,-0.6,,
CG33919 (GeneID 3772720),1,-0.2,-0.3,,
CG32212 + hpRNA:CR33940,1,0.4,1.3,,
CG7912 (GeneID 43561),1,-0.4,-0.2,,
kirre (GeneID 31292),1,0,-0.4,,
Kaz1-ORFB + Kaz1-ORFA,1,-0.3,0.7,,
rumi (GeneID 326122),1,-0.2,0,,
Tsp47F (GeneID 36230),1,0.9,1.8,,
CG10413 (GeneID 35111),1,-0.5,0.1,,
Uch-L5 (GeneID 39102),1,-0.3,-0.3,,
CG32815 (GeneID 318224),1,-0.3,-0.3,,
CG12128 (GeneID 36042),1,-0.2,-0.2,,
Nmt (GeneID 38909),1,-0.5,-0.9,,
CG12177 (GeneID 32326),1,-0.2,0,0.2,0
CG32276 (GeneID 251645),1,-0.4,0.2,,
CG10814 (GeneID 36481),1,-0.2,-0.8,,
Ptp69D (GeneID 39443),1,-0.4,-0.6,,
Miga (GeneID 31775),1,-0.2,-0.3,,
SelT (GeneID 33725),1,-0.3,-0.1,,
